Results are given in words; binding and its absence hold for the method and conditions named. Binding seen in cells or lysates may run through a third protein. A yes stands for co-enrichment or nearness to the bait. Other partners may have been found.

Amino acid sequences for entries named in this document (tags omitted).
UniProt Q8TB45: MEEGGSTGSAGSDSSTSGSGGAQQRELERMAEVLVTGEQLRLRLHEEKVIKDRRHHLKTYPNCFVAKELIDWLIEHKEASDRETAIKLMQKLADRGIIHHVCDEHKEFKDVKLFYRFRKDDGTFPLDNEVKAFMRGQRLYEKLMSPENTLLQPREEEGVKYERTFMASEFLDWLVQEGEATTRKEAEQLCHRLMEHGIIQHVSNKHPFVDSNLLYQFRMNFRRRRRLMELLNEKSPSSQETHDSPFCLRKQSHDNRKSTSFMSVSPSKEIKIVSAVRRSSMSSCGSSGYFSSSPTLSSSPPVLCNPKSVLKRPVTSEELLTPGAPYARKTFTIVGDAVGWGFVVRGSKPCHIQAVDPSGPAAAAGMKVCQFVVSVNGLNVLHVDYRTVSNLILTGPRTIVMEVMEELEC

The target in the experiment is T1, LRRC4 (bait of the CoIP combined with mass spectrometry) (human) (UniProt Q9HBW1).
T1 sequence: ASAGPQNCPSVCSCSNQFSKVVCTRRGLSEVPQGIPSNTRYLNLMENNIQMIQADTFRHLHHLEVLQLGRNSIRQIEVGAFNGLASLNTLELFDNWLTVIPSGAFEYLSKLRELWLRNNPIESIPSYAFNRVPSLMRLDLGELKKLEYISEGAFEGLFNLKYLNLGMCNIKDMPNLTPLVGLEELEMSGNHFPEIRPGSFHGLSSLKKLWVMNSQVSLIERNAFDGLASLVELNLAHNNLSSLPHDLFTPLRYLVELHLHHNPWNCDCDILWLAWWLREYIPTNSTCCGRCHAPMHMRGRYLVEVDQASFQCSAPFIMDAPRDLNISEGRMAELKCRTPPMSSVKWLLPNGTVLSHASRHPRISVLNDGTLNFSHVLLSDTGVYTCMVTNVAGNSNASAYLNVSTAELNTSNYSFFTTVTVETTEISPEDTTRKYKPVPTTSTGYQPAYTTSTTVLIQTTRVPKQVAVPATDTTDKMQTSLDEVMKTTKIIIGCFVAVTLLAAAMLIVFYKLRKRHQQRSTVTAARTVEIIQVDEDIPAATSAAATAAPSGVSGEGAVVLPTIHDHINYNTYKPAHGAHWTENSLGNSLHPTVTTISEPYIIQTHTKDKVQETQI
In words: affinity purification with mass spectrometry; co-immunoprecipitation of LRRC4 combined with mass spectrometry.

In the case of “DEPTOR (identified by mass spectrometry) (from UniProt Q8TB45 1-409)”, the binding entry was “binds”.
